According to US20140162952A1:
Results are given in words; binding and its absence hold for the method and conditions named. For part of these data: In cells and extracts the contact can be indirect. Some results given as binding are weak or reduced against the parent protein; the word gives no strength. Tags and fused reporters may be left off the sequences shown.

Sequences of proteins named here, by UniProt entry; tags and fusion partners are left off. A change or cut given only in a name is not applied to a line headed by its entry.
UniProt Q99623: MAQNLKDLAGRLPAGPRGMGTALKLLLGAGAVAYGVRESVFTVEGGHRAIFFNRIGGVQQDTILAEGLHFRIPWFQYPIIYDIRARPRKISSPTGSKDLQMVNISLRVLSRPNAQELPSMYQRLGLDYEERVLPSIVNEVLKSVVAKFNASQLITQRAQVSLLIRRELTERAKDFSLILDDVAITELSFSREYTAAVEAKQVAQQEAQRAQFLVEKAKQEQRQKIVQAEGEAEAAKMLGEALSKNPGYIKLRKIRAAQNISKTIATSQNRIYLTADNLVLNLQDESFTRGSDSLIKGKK
UniProt P03372: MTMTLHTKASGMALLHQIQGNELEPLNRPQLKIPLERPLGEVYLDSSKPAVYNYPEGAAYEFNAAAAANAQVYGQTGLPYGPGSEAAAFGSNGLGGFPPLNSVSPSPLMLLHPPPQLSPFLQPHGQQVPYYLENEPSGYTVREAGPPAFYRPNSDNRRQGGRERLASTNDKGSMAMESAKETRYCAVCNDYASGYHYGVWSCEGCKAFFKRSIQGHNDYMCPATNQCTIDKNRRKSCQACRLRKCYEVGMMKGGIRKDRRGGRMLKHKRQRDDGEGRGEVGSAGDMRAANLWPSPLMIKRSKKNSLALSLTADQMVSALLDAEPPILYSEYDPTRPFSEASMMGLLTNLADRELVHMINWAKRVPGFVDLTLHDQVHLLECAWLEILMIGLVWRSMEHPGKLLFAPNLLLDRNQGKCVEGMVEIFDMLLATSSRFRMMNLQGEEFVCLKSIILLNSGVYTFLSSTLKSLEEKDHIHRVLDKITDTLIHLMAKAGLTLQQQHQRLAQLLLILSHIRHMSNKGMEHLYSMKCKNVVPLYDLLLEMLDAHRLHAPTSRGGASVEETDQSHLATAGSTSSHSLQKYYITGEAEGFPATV

How the values were obtained:
[1] = molecular target: 6×His-tagged recombinant PHB2/REA protein (human) (UniProt Q99623); assay: fluorescence correlation spectroscopy with FITC-tagged ERAP1-peptide
[2] = molecular target: 6×His-tagged recombinant PHB2/REA protein (human) (UniProt Q99623); assay: fluorescence correlation spectroscopy, 10 nM FITC-tagged ERAP1-peptide with rising 6xHis-PHB2/REA
[3] = molecular target: 6×His-tagged recombinant PHB2/REA protein (human) (UniProt Q99623); assay: Ni-resin pull-down of 10 µg His-PHB2 mixed with lysate of Flag-tagged ERAP1 expressing cells and HA-peptide; blot for Peptide; competitor: Flag-ERAP1
[4] = molecular target: 6×His-tagged recombinant PHB2/REA protein (human) (UniProt Q99623); assay: Biacore with HA-tagged ERAP1-peptide
[5] = molecular target: 6×His-tagged recombinant PHB2/REA protein (human) (UniProt Q99623); assay: Biacore, 6xHis-PHB2/REA immobilised on the chip, HA-tagged ERAP1-peptide injected; plot of the equilibrium response against the peptide concentration
[6] = molecular target: estrogen receptor α (ERα) (human) (UniProt P03372); assay: co-IP from cytoplasm and nuclear fractions of KPL-3C cells, 24 h, 10 nM E2 and/or 10 µM HA-tagged ERAP1-peptide; blot anti-HA
[7] = molecular target: inherent PHB2/REA (prohibitin 2 / Repressor of Estrogen Activity) (human) (UniProt Q99623); assay: as above
[8] = molecular target: inherent PHB2/REA (prohibitin 2 / Repressor of Estrogen Activity) (human) (UniProt Q99623); assay: IP-Western of cell fractions (KPL-3C) and immunofluorescence (MCF-7)
[9] = molecular target: 6×His-tagged recombinant PHB2/REA protein (human) (UniProt Q99623); assay: Ni-resin pull-down and Western blot

Measured: binding

B1: FITC-tagged ERAP1-peptide (peptide)
peptide: RRRRRRRRRRRQMLSDLTLQLRQR
modifications: FITC tag, position not stated
binds: [1] | [2]

B2: HA-tagged ERAP1-peptide (peptide)
peptide: RRRRRRRRRRRQMLSDLTLQLRQR
not listed: [1] | [2]
binds: all other assays above
